The target in the assay is HSPA8 (heat shock cognate 70 kDa protein) (mouse (endogenous in mouse testis)) (UniProt P63017). Kind of assay: affinity purification with mass spectrometry; IP with HSPA8 antibody from mouse testis lysate, LC-MS.

Sequences of proteins named here, by UniProt entry; tags and fusion partners are left off.
UniProt P63017: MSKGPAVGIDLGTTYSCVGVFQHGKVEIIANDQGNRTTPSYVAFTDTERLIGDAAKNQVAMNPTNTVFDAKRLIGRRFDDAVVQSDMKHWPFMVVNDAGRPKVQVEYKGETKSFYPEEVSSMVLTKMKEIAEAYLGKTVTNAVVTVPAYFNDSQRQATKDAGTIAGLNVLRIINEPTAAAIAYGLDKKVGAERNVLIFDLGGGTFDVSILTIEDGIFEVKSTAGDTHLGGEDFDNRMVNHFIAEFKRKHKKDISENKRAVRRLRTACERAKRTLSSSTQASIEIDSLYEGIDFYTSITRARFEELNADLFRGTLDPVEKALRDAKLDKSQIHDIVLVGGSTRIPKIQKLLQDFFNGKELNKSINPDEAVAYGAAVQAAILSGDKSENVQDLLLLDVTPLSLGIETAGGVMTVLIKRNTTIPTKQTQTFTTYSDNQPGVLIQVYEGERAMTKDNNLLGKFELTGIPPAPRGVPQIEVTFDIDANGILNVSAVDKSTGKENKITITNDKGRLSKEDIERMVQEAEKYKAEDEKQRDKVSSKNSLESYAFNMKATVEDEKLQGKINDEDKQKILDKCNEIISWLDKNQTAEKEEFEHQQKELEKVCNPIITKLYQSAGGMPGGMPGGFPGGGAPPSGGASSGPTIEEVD

These are yes or no findings as the source states them, for the method shown. In cells and extracts the contact can be indirect. These calls come from enrichment with a bait or labelling near it, and not all partners need be listed.

B1: Spermatogenesis Associated 6 (SPATA6) (protein, UniProt Q3U6K5 18-488)
chain: VTCPGVVLKDKEDIYLSICVFGQYKKTQCVPATFPLVFNARMVFEKVFPEAVDPGDVVAQLEYDTAVFELIQLVPPVGETLSTYDENTRDFMFPGPNQMSGHHDSNRQVTMRRISGLRGIAPKLEFSTTSVITECLISSRKCRTQDKFTYHSAPVEKSHGRLQCRTSRSQKKKSKSPERSKYCINTKNYEQPTISSKSHSPSPYTKRRMCELSEDTRRRLAHLNLGPYEFKKETDKPPFVIRHVDPPSPRTDNFFGSPGRDCERDGWVRMHSDHPHIGCCRSKDYKVIRSPHGRDFEDPFERCEEYLSPRTCSKPQHSARTLLVHSAPSTTPKHCASPVLNRASLRERFHSDWCSPPNCDEIHDRVKDVLKSHQAHARHLCDERDPEREDELELKRSLLYRDSAYDSDPEYSSFQRPRGSFHLDDGECWSNRAASCKGKSHRPVFENSMDKMYRNLYKKACSSVSHTQESF
As to B1, the binding result was “binds”.

The values are drawn from paper PMC11015022.
